Data: the supplement of paper PMC10849652
Some of the results follow.

Sequences of proteins named here, by UniProt entry; tags and fusion partners are left off. A change or cut given only in a name is not applied to a line headed by its entry.
UniProt P01008, whole entry, looked up: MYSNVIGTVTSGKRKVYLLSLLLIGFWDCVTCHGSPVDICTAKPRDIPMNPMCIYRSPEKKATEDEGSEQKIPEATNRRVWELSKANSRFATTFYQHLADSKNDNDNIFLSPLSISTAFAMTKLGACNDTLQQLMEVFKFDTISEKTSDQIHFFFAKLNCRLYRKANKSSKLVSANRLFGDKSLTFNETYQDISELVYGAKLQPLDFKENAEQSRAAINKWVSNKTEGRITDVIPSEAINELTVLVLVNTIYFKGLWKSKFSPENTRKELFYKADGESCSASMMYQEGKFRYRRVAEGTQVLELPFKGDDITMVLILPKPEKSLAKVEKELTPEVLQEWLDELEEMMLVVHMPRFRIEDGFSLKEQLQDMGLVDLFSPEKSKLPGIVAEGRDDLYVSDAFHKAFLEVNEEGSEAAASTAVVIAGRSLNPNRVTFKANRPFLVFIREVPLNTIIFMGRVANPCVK
UniProt Q587I9: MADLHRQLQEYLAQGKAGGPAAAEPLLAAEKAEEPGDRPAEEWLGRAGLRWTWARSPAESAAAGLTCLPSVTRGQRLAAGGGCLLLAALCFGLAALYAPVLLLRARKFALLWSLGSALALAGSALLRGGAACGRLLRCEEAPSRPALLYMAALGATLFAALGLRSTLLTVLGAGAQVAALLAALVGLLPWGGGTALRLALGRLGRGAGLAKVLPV
UniProt P63208, whole entry, looked up: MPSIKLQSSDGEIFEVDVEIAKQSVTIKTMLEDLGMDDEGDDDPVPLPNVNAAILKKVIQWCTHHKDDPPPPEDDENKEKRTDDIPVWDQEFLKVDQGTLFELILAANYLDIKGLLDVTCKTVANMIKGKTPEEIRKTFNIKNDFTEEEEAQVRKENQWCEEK
UniProt Q13435: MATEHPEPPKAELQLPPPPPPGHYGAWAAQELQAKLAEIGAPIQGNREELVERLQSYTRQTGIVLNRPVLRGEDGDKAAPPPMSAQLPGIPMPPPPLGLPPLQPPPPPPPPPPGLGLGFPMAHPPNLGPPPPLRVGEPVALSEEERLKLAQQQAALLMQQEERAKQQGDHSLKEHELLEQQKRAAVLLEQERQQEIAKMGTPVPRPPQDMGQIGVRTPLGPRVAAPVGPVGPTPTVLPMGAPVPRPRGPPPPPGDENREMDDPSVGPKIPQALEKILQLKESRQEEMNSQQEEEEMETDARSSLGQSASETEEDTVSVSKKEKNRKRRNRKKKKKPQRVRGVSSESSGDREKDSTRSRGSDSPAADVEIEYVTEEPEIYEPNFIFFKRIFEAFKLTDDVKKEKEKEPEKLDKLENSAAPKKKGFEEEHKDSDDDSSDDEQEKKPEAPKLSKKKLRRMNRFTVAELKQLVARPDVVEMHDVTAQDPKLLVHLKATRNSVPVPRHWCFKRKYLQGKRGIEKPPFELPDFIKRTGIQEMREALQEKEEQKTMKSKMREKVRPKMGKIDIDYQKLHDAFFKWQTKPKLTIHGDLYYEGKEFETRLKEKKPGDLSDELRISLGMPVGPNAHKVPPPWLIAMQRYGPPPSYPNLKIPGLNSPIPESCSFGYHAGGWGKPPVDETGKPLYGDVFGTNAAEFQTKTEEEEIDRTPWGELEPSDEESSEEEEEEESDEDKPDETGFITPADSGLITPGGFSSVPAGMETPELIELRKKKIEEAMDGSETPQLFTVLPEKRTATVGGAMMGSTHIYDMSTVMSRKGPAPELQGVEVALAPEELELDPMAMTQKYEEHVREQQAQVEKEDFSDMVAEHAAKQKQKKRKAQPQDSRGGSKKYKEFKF
UniProt Q86VZ5: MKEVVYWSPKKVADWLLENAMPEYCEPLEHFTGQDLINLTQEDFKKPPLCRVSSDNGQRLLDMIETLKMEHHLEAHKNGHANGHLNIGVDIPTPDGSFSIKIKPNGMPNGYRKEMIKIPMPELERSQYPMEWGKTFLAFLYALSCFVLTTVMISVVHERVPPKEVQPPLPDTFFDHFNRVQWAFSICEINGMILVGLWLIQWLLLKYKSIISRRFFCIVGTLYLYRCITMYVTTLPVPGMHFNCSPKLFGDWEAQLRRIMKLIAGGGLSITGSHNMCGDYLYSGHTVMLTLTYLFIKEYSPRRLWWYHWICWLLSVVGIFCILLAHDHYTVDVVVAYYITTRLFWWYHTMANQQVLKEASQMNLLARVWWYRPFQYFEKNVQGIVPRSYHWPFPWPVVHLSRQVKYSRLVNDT
UniProt Q9H173: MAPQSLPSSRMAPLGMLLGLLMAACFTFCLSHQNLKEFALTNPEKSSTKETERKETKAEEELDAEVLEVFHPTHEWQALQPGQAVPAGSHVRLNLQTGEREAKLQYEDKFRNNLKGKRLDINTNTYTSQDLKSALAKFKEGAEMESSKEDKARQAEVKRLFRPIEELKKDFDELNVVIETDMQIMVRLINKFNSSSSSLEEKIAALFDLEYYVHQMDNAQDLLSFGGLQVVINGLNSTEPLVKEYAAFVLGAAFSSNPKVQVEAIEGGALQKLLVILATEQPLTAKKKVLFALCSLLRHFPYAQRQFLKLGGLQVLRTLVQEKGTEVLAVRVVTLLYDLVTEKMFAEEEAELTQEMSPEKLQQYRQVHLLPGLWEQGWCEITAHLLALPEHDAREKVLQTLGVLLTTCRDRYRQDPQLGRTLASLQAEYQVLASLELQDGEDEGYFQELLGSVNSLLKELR
UniProt Q6P4A7: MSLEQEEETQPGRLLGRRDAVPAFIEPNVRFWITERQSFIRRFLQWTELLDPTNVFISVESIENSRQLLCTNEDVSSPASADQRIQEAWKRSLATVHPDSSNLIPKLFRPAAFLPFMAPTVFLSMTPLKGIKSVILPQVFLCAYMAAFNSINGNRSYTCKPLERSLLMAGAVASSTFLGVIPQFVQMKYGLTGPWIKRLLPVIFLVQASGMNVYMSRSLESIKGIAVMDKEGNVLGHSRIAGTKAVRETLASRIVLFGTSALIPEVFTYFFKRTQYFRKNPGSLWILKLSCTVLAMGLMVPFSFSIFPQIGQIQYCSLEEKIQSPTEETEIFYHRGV
UniProt Q9Y371: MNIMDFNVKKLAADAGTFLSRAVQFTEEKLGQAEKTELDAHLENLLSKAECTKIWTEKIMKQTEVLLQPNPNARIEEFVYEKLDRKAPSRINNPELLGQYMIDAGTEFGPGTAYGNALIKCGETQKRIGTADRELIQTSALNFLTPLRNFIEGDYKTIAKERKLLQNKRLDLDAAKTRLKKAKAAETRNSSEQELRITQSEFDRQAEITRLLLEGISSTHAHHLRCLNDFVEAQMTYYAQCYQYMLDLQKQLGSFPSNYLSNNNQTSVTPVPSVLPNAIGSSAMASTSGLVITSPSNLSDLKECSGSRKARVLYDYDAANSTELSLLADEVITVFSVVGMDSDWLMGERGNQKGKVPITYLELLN
UniProt P34896: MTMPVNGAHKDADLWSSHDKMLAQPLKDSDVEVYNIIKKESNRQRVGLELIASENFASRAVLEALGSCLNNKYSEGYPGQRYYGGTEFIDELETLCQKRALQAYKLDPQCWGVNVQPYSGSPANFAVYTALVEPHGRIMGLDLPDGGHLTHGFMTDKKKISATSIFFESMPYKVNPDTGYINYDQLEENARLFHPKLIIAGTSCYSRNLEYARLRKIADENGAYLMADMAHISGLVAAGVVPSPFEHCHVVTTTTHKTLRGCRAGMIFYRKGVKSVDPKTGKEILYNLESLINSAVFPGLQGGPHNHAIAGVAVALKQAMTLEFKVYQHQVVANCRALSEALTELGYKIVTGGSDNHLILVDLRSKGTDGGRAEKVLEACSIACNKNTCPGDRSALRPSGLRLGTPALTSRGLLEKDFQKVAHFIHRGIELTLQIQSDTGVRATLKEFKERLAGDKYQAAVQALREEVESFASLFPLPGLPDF
UniProt Q9H299: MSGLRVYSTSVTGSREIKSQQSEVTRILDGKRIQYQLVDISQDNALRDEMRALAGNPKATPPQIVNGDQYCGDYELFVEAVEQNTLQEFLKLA
UniProt Q86TU7: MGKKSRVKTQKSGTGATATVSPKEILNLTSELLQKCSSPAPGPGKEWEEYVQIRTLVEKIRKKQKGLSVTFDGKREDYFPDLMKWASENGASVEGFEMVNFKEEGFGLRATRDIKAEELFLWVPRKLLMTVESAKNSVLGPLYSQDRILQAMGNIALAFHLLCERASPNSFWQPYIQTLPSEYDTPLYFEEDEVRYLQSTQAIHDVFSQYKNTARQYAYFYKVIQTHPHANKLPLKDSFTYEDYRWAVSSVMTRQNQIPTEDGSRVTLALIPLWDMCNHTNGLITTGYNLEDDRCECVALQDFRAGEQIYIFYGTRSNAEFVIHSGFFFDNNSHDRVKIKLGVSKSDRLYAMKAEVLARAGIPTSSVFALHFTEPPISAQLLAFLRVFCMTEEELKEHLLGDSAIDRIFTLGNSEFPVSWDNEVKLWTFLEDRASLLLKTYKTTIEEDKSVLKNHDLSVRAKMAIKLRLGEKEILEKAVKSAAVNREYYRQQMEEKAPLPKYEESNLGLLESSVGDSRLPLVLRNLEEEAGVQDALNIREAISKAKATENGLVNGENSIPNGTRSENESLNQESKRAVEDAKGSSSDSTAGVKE
UniProt Q9BQE4, whole entry, looked up: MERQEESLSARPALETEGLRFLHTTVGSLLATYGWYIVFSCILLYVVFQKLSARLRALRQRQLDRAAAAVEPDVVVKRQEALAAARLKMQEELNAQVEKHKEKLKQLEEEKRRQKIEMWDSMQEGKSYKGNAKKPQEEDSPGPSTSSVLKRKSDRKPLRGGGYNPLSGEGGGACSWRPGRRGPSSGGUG
UniProt Q9NVA2: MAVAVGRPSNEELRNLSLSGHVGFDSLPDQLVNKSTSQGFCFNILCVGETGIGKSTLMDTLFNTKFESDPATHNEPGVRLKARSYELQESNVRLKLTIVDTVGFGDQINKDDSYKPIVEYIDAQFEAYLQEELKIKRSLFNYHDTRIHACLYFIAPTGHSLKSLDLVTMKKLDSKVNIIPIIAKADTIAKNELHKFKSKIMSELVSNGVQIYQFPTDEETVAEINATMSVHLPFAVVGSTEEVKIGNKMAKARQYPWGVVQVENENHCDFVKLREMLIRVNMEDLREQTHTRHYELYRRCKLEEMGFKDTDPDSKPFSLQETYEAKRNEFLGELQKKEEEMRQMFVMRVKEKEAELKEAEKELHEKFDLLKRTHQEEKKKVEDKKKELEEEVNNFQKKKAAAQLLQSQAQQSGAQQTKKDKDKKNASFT
UniProt Q96ES7: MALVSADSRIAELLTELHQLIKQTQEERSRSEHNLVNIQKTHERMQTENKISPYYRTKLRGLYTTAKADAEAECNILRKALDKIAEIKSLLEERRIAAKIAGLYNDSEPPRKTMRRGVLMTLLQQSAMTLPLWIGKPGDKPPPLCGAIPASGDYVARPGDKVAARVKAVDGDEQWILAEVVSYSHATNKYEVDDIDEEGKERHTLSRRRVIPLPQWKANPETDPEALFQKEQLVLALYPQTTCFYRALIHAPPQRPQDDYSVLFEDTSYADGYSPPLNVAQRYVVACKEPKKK
UniProt Q8IZQ5, whole entry, looked up: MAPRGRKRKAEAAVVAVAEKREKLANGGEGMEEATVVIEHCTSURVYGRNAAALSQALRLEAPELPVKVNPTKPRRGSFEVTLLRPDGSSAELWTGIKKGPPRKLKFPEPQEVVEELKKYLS
UniProt Q14141: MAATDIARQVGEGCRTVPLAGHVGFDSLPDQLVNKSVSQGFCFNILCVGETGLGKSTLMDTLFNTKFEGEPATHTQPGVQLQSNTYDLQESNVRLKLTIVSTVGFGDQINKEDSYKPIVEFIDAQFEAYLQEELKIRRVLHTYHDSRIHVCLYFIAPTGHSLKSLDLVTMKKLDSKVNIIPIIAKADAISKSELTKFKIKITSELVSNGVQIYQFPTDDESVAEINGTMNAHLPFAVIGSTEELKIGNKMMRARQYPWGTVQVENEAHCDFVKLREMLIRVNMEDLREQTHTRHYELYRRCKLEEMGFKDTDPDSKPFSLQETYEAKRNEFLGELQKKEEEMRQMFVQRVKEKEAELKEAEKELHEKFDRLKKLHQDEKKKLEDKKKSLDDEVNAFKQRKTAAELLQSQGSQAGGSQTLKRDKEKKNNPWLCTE
UniProt Q16181: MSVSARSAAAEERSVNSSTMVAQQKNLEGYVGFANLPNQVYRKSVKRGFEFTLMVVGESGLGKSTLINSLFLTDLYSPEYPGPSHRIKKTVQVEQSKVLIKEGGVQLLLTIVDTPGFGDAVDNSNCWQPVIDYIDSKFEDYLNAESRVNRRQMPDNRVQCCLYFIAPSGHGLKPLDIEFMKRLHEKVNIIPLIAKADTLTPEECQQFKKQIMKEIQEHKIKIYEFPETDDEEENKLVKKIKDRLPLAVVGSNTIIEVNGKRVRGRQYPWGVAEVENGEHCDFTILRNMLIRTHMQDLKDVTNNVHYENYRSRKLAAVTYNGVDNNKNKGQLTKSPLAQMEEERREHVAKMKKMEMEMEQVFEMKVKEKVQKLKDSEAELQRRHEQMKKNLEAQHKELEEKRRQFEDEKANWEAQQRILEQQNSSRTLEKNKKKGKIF

Assays:
Experiment in all cases: log2 fold change, soluble protein after heating vs DMSO (PISA); higher = thermal stabilisation; K562 cells, 10 uM, 30 min; active = over 0.2 and 3.5 SD of the protein, either way, in both replicates (recomputed)
bafetinib = compound: Cc1ccc(NC(=O)c2ccc(CN3CC[C@H](N(C)C)C3)c(C(F)(F)F)c2)cc1Nc1nccc(-c2cncnc2)n1 [bafetinib]
How it was run: (§1)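 For each measurement, 10 μM compound was applied for 30 min to K562 cells at 2×10^6 cells/mL. Aliquots were heated for 3 min across 48°C-58°C, pooled, and extracted in PBS with 0.5% NP-40 at 4°C; the supernatant after 21,000xg for 90 min was soluble protein. This was quantified by TMTpro 16plex LC-MS/MS with channel sums equalised, and thermal stability was reported relative to control samples from duplicates, on a log2 fold-change scale.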

[1] = compound: Cc1cccc(CC(=O)N2CCc3c2ccc(-c2cn(C)c4ncnc(N)c24)c3F)n1
How it was run: as §1

nilotinib = compound: Cc1cn(-c2cc(NC(=O)c3ccc(C)c(Nc4nccc(-c5cccnc5)n4)c3)cc(C(F)(F)F)c2)cn1 [nilotinib]
How it was run: as §1

[2] = compound: Cc1nc(Nc2n[nH]c3c2CN(C(=O)N[C@H](CN(C)C)c2ccccc2)C3(C)C)c2sccc2n1
How it was run: as §1

dasatinib = compound: Cc1nc(Nc2ncc(C(=O)Nc3c(C)cccc3Cl)s2)cc(N2CCN(CCO)CC2)n1 [dasatinib]
How it was run: as §1

[3] = compound: Cc1ncc(-c2ccnc(Nc3ccc(S(C)(=O)=O)cc3)n2)n1C(C)C
How it was run: as §1

[4] = compound: Cn1cc(-c2ccc3c(c2)CCN3C(=O)Cc2cccc(C(F)(F)F)c2)c2c(N)ncnc21
How it was run: as §1

[5] = compound: Cn1cc(-c2ccc3nnc(C(F)(F)c4ccc5ncccc5c4)n3n2)cn1
How it was run: as §1

tipifarnib = compound: Cn1cncc1[C@@](N)(c1ccc(Cl)cc1)c1ccc2c(c1)c(-c1cccc(Cl)c1)cc(=O)n2C [tipifarnib]
How it was run: as §1

mubritinib = compound: FC(F)(F)c1ccc(/C=C/c2nc(COc3ccc(CCCCn4ccnn4)cc3)co2)cc1 [mubritinib]
How it was run: as §1

| Target | log2 fold change (bafetinib) | log2 fold change [1] | log2 fold change (nilotinib) | log2 fold change [2] | log2 fold change (dasatinib) | log2 fold change [3] | log2 fold change [4] | log2 fold change [5] | log2 fold change (tipifarnib) | log2 fold change (mubritinib) |
| --- | --- | --- | --- | --- | --- | --- | --- | --- | --- | --- |
| SERPINC1 (UniProt P01008) | inactive: -0.035 | inactive: -0.065 | inactive: 0.02 | inactive: 0.072 | inactive: 0.063 | inactive: 0.293 | inactive: 0.175 | inactive: -0.034 | inactive: 0 | inactive: -0.321 |
| SFT2D3 (UniProt Q587I9) | inactive: -0.053 | inactive: -0.01 | inactive: 0.078 | inactive: -0.035 | inactive: 0.034 | inactive: -0.11 | inactive: -0.004 | inactive: -0.16 | inactive: 0.208 | inactive: 0.046 |
| SEPTIN5 (UniProt Q99719) | inactive: -0.017 | inactive: 0.021 | inactive: -0.011 | inactive: 0.002 | inactive: -0.048 | inactive: -0.006 | inactive: 0.051 | inactive: 0.025 | inactive: -0.024 | inactive: 0.007 |
| SERPINB8 (UniProt P50452) | inactive: -0.121 | inactive: 0.041 | inactive: 0.067 | inactive: -0.03 | inactive: 0.113 | inactive: 0.01 | inactive: 0.001 | inactive: 0.051 | inactive: 0.086 | inactive: 0.105 |
| SKP1 (UniProt P63208) | inactive: -0.003 | active: 0.289 | inactive: 0.024 | inactive: -0.011 | inactive: 0.007 | inactive: 0.012 | inactive: 0.047 | inactive: -0.017 | inactive: -0.06 | inactive: -0.001 |
| SF3B2 (UniProt Q13435) | inactive: 0.087 | inactive: -0.041 | inactive: -0.046 | inactive: -0.014 | inactive: 0.046 | inactive: 0.004 | inactive: -0.088 | inactive: -0.068 | inactive: 0.05 | inactive: -0.034 |
| SGMS1 (UniProt Q86VZ5) | inactive: -0.048 | inactive: -0.002 | inactive: -0.032 | inactive: -0.012 | inactive: 0.001 | inactive: -0.014 | inactive: -0.008 | inactive: -0.034 | inactive: 0.025 | inactive: -0.007 |
| SIL1 (UniProt Q9H173) | inactive: 0.063 | inactive: 0.043 | inactive: -0.045 | inactive: 0.021 | inactive: 0.031 | inactive: -0.117 | inactive: -0.074 | inactive: -0.002 | inactive: 0.115 | inactive: -0.08 |
| SFXN4 (UniProt Q6P4A7) | inactive: -0.049 | inactive: -0.111 | inactive: -0.018 | inactive: 0.148 | inactive: 0.037 | inactive: -0.151 | inactive: -0.055 | inactive: -0.019 | inactive: -0.03 | inactive: -0.017 |
| SEPTIN2 isoform 2 (UniProt Q15019) | inactive: -0.017 | inactive: -0.034 | inactive: 0.007 | inactive: 0.017 | inactive: 0.027 | inactive: -0.014 | inactive: 0.019 | inactive: 0.003 | inactive: 0.028 | inactive: 0.042 |
| SH3GLB1 isoform 2 (UniProt Q9Y371) | inactive: -0.068 | inactive: 0.095 | inactive: 0.02 | inactive: -0.191 | inactive: -0.16 | inactive: -0.068 | inactive: 0.028 | inactive: 0 | inactive: -0.082 | inactive: 0.062 |
| SEL1L (UniProt Q9UBV2) | inactive: 0.036 | inactive: 0.001 | inactive: 0.018 | inactive: -0.006 | inactive: 0.007 | inactive: -0.015 | inactive: -0.029 | inactive: 0.02 | inactive: -0.008 | inactive: -0.013 |
| SHMT1 (UniProt P34896) | inactive: 0.008 | inactive: 0.009 | inactive: 0.003 | inactive: 0.04 | inactive: 0.03 | inactive: 0.006 | inactive: 0.022 | inactive: 0.025 | inactive: -0.028 | inactive: 0.053 |
| SH3BGRL3 (UniProt Q9H299) | inactive: -0.026 | inactive: 0 | inactive: -0.01 | inactive: -0.013 | inactive: 0.024 | inactive: 0.005 | inactive: 0.146 | inactive: -0.057 | inactive: -0.103 | inactive: 0.045 |
| SETD3 (UniProt Q86TU7) | inactive: -0.015 | inactive: -0.005 | inactive: 0.002 | inactive: -0.009 | inactive: 0.006 | inactive: -0.023 | inactive: 0.033 | inactive: 0.031 | inactive: 0.029 | inactive: 0.052 |
| SF3B1 (UniProt O75533) | inactive: 0.048 | inactive: 0.098 | inactive: -0.041 | inactive: -0.167 | inactive: -0.069 | inactive: -0.052 | inactive: -0.041 | inactive: 0.017 | inactive: -0.026 | inactive: 0.082 |
| SF3B4 (UniProt Q15427) | inactive: 0.029 | inactive: -0.052 | inactive: 0.069 | inactive: 0.004 | inactive: 0.097 | inactive: 0.042 | inactive: -0.177 | inactive: -0.04 | inactive: 0.068 | inactive: 0.005 |
| SEPTIN5 (UniProt G3XAH0) | inactive: -0.038 | inactive: -0.013 | inactive: -0.05 | inactive: -0.024 | inactive: -0.049 | inactive: -0.008 | inactive: -0.05 | inactive: 0.082 | inactive: 0.006 | inactive: -0.011 |
| SELENOS (UniProt Q9BQE4) | inactive: -0.128 | inactive: -0.024 | inactive: 0.04 | inactive: -0.004 | inactive: 0.026 | inactive: 0.078 | inactive: -0.042 | inactive: 0.012 | inactive: 0.043 | inactive: 0.015 |
| SF3A1 (UniProt Q15459) | inactive: 0.003 | inactive: 0.021 | inactive: 0.002 | inactive: -0.087 | inactive: -0.002 | inactive: 0.011 | inactive: -0.055 | inactive: 0.006 | inactive: 0.025 | inactive: 0.045 |
| SIRT6 (UniProt Q8N6T7) | inactive: 0.139 | inactive: -0.043 | inactive: -0.143 | inactive: 0.06 | inactive: -0.085 | inactive: -0.022 | inactive: 0.086 | inactive: -0.076 | inactive: -0.014 | inactive: 0.001 |
| SHKBP1 (UniProt Q8TBC3) | inactive: -0.031 | inactive: -0.089 | inactive: 0.037 | inactive: 0.059 | inactive: 0.039 | inactive: -0.09 | inactive: 0.01 | inactive: -0.077 | inactive: 0.005 | inactive: 0 |
| SENP6 (UniProt Q9GZR1) | inactive: 0.015 | inactive: -0.015 | inactive: 0.007 | inactive: -0.038 | inactive: -0.028 | inactive: 0.063 | inactive: 0.046 | inactive: -0.013 | inactive: 0.025 | inactive: 0.053 |
| SEPTIN11 isoform 2 (UniProt Q9NVA2) | inactive: -0.063 | inactive: -0.048 | inactive: 0.013 | inactive: -0.015 | inactive: 0.028 | inactive: -0.014 | inactive: 0.02 | inactive: 0.004 | inactive: -0.026 | inactive: 0.045 |
| SGF29 (UniProt Q96ES7) | inactive: -0.038 | inactive: -0.065 | inactive: 0.025 | inactive: -0.015 | inactive: -0.071 | inactive: -0.07 | inactive: 0.022 | inactive: -0.11 | inactive: -0.006 | inactive: 0.024 |
| SEMA4B (UniProt Q9NPR2) | inactive: 0.028 | inactive: -0.014 | inactive: 0.015 | inactive: -0.198 | inactive: -0.024 | inactive: 0.035 | inactive: 0.085 | inactive: -0.314 | inactive: 0.071 | inactive: 0.163 |
| SELENOH (UniProt Q8IZQ5) | inactive: 0.042 | inactive: 0.21 | inactive: -0.02 | inactive: 0.011 | inactive: 0.076 | inactive: 0.012 | inactive: -0.039 | inactive: 0.036 | inactive: -0.01 | inactive: -0.009 |
| SEPTIN6 (UniProt Q14141) | inactive: -0.02 | inactive: 0.013 | inactive: -0.001 | inactive: 0 | inactive: 0.027 | inactive: 0.019 | inactive: 0.064 | inactive: -0.011 | inactive: -0.006 | inactive: -0.008 |
| SEPTIN7 (UniProt Q16181) | inactive: 0.028 | inactive: -0.014 | inactive: -0.008 | inactive: -0.01 | inactive: -0.05 | inactive: -0.016 | inactive: 0.076 | inactive: -0.035 | inactive: -0.063 | inactive: 0.041 |

Some of the entries above, reformatted:
Target | log2 fold change (bafetinib) | log2 fold change [1] | log2 fold change (nilotinib) | log2 fold change [2] | log2 fold change (dasatinib) | log2 fold change [3] | log2 fold change [4] | log2 fold change [5] | log2 fold change (tipifarnib) | log2 fold change (mubritinib)
SFT2D3 (UniProt Q587I9) | inactive: -0.053 | inactive: -0.01 | inactive: 0.078 | inactive: -0.035 | inactive: 0.034 | inactive: -0.11 | inactive: -0.004 | inactive: -0.16 | inactive: 0.208 | inactive: 0.046
SEPTIN5 (UniProt Q99719) | inactive: -0.017 | inactive: 0.021 | inactive: -0.011 | inactive: 0.002 | inactive: -0.048 | inactive: -0.006 | inactive: 0.051 | inactive: 0.025 | inactive: -0.024 | inactive: 0.007
